Results: patent publication US20230265175A1
Results are given in words; binding and its absence hold for the method and conditions named. Where a sequence is shown, tags or fusion partners need not be part of it.

Assays:
pSer412Cys (74AXY) [1] = molecular target: T1, pSer412Cys (74AXY); assay: peptide-coated ELISA (peptide 74AXY, OD405)
T1 sequence (peptide, phosphoserine as printed, NV(pS)STGSC): NVSSTGSC

pSer412Cys (74AXY) [2] = molecular target: T1, pSer412Cys (74AXY); assay: peptide-coated ELISA

B1: V5-AFM-hIgG4-S228P (antibody, V domains shown)
VH: EVQLVESGGGLVQPGGSLRLSCAASGFTFSSFALNWVRQAPGKGLEWVGHIRSKTNNYVTFYAASVKGRFTVSRDDSQNTAYLQMNSLKTEDTATYYCVRRGPRDSWFGYWGQGTLVTVSS
VL: DIVMTQSPLSLPVTLGEPASISCRSSQKIVHRNANTYLEWYLQKPGQSPQLLIYTVSNRFSGVPDRFSGSGSGTDFTLKISRVEAEDLGVYYCFQGSYLPLTFGGGTKVEIKR
In the case of B1, the binding (pSer412Cys (74AXY) [1]) is reported as “no binding (tested: 10 µg/ml)” and the binding (pSer412Cys (74AXY) [2]) is reported as “no binding (tested: 10 µg/ml top concentration)”.
